Some of the results follow.

Chains of the proteins cited; added tags and fusions are not shown.
UniProt Q0JBA9, entry or part of it: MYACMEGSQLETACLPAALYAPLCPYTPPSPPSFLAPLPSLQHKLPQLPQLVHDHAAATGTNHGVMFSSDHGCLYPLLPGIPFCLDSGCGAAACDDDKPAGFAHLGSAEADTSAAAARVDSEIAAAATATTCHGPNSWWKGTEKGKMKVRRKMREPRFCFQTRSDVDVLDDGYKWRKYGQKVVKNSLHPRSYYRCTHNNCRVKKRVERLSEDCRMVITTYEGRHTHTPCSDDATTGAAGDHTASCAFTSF

The target of this test is OsWRKY34 (Oryza sativa, UniProt Q0JBA9 1-250). The test can be described thus: protein-binding microarray (RPBM); PBS, 2% BSA, 51.3 ng/ul salmon testes DNA, 50 uM zinc acetate, 200 nM TF, 25 C, 1 h; high values mean tight binding. Conditions: protein: recombinant; tags: N-terminal polyhistidine and DsRed monomer fusion (pET32a); label: CyDye5-dUTP incorporated in the synthesized complementary strand; 3' TTTTT single-stranded linker to array surface; dsDNA, one strand shown. The method in brief: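 Transcription factors, each fused N-terminally to a polyhistidine tag and DsRed, were expressed in E. coli BL21-CodonPlus and purified on Ni–NTA. A custom Agilent array was made double-stranded by primer extension with Cy5-dUTP and blocked with 2% BSA. It was incubated with 200 nM protein in PBS, 2% BSA, salmon testes DNA and 50 µM zinc acetate at 25 °C for 1 h, then washed. The binding signal is per-feature fluorescence intensity (arbitrary units) read on an Axon 4000B scanner.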
As to “ACCAATAGCTAGCAATACTTGCCATCATATATACCTGGGCCGGAGTCACCTAGTGCAG”, the binding signal is 8020 fluorescence intensity (a.u.). As to “GCTCGTCGCCGTCTTGCTCGCCACCGCTCGCCGCCGCCGCCGGAGTCACCTAGTGCAG”, the binding signal is 10400 fluorescence intensity (a.u.). With “AGTAATTTATGTTTGACTATTTTTTTAAAAATTTTTTATGCGGAGTCACCTAGTGCAG”, the binding signal was 10800 fluorescence intensity (a.u.).

“TCACTCTTATTTATTACCAAGCTTGCTATTATCTTAAAATCGGAGTCACCTAGTGCAG”: the binding signal was 8750 fluorescence intensity (a.u.). In the case of “TCGCGGTTGCTTCCTTGCTGTTGAACATTTTTTTTTCTCTCGGAGTCACCTAGTGCAG” it was 9220 fluorescence intensity (a.u.); in that of “CCAGCCCACTGATTCCTCACCGAATTTTTTCATTTTTTTTCGGAGTCACCTAGTGCAG”, 9700 fluorescence intensity (a.u.); in that of “CTTCAGAGAGGAGCAAAGCGTTGACTTTCATTGGAGACAACGGAGTCACCTAGTGCAG”, 16000 fluorescence intensity (a.u.). On to “CCTTCCTCTTCGCACACCTCCACCGACCGCCGCCGATCGTCGGAGTCACCTAGTGCAG”, for which the binding signal is 8580 fluorescence intensity (a.u.). Take “GCTCGCTCATTTTCACACCCAAGCGGCCAAGCCCAACTTACGGAGTCACCTAGTGCAG”: the binding signal is 8810 fluorescence intensity (a.u.). In the case of “GTGCTCTGCTCCAAGTTTTGTTCTGAGGTATACCTATGTACGGAGTCACCTAGTGCAG”, the binding signal is 8120 fluorescence intensity (a.u.).

For the sequence “ATCTTCTTCAACAGTTGCACTTCATTCGTCGCTTACTCCTCGGAGTCACCTAGTGCAG”, the binding signal was 13500 fluorescence intensity (a.u.). As for “TTTTTATTTTTATTTCATTTTTTGATATTTTTTTCACACTCGGAGTCACCTAGTGCAG”, the binding signal is 9820 fluorescence intensity (a.u.). Regarding “CAGCCCTAGCGTTCTCCTCCTACCCCGTCTCCGGACTCCGCGGAGTCACCTAGTGCAG”, the binding signal is 9370 fluorescence intensity (a.u.).

For “CCTCTTTTCTCTCTCTTCTTCTTTGTAAAGCATCTTTGAACGGAGTCACCTAGTGCAG”, the binding signal was 10600 fluorescence intensity (a.u.).

As for “GTCGTCCAATGGCATGCCTCGCCCTGATTTTTATCGGGCCCGGAGTCACCTAGTGCAG”, the binding signal is 12700 fluorescence intensity (a.u.). Turning to “ACTTTTTAATATCTACACTAAATTTTTAGTACTTATCATACGGAGTCACCTAGTGCAG”, the binding signal was 8210 fluorescence intensity (a.u.). Under “GCACCGTACCGTCATGCCGTTAGTCTCGAGCTTTCTTCGTCGGAGTCACCTAGTGCAG” stands 9740 fluorescence intensity (a.u.). In the case of “CGACCCGTTTCCTTCCAACACAAGGCACCTCCACGACGATCGGAGTCACCTAGTGCAG” it was 8090 fluorescence intensity (a.u.); in that of “GGGCGCATGATTCGATCCCTTGTTGTTTGCTGTTGTTGCCCGGAGTCACCTAGTGCAG”, 15300 fluorescence intensity (a.u.). Under “TCTCATCGACCGCCCACTTCTTCATTCTTCACCCACCGGACGGAGTCACCTAGTGCAG” stands 10900 fluorescence intensity (a.u.); under “ACGCACTCGTCTGACTTTTTTCCCGGGATTTGCTGAGGAACGGAGTCACCTAGTGCAG”, 9060 fluorescence intensity (a.u.). In the case of “CTTTTTTTCTCTTTCTTCAACTTTCTTTCGTCTCCCTTCTCGGAGTCACCTAGTGCAG”, the binding signal was 11500 fluorescence intensity (a.u.). Consider “TGGGGATGCGGGGTGGCGCGGGAGGAGGGAGAGGACGGAGCGGAGTCACCTAGTGCAG”, for which the binding signal is 8670 fluorescence intensity (a.u.).

“ATTGTCCATCCCATCCCATCTCAATCCTTTCTACCAAACACGGAGTCACCTAGTGCAG”: the binding signal is 9750 fluorescence intensity (a.u.).

On to “CCAACCATTAGACCTCATTTGTTGTATTTTTTTTCTTTGGCGGAGTCACCTAGTGCAG”, for which the binding signal was 9300 fluorescence intensity (a.u.). In the case of “TAATTGCATTCCTATCTTCATCTGTTTCATTGGCACATTGCGGAGTCACCTAGTGCAG”, the binding signal was 8620 fluorescence intensity (a.u.). “CGTCGCATCCCGCCCAAATTTGGCAGCTCTTCATCTCACCCGGAGTCACCTAGTGCAG”: the binding signal is 9690 fluorescence intensity (a.u.).

For the sequence “GTCTTACCCTTGCTCAATTGATTCTTTCTACAGATGGCACCGGAGTCACCTAGTGCAG”, the binding signal was 10900 fluorescence intensity (a.u.). Consider “GATGCAGCATCTTGTTTCTTCATCTGCGGTTGACTAGGATCGGAGTCACCTAGTGCAG”, for which the binding signal was 8420 fluorescence intensity (a.u.).

On to “AATGGGTTGTTGGGCCTTGACGCGCGCGGTGCGGCCCATTCGGAGTCACCTAGTGCAG”, for which the binding signal is 8470 fluorescence intensity (a.u.). As to “AATGTCAAATTTCAAGTGATTTATGGGGTGGTTTTTACAACGGAGTCACCTAGTGCAG”, the binding signal is 10700 fluorescence intensity (a.u.). Consider “CGCCGTTTCTTCTGTAGTCGATTCCATCACACTTTTCGATCGGAGTCACCTAGTGCAG”, for which the binding signal is 8590 fluorescence intensity (a.u.).

Turning to “TCTGCTTCCAAGGCCGCTGTTGTGAAGACCCTGGATGACTCGGAGTCACCTAGTGCAG”, the binding signal is 10100 fluorescence intensity (a.u.).

Regarding “CATTGAATTGGATTCGTCGTTCGATCGTTGACCACCGACACGGAGTCACCTAGTGCAG”, the binding signal was 12500 fluorescence intensity (a.u.). In the case of “GCTTGTTTATCTTCTTCATCTTAAACAATGTTGGTTTTCTCGGAGTCACCTAGTGCAG”, the binding signal is 10300 fluorescence intensity (a.u.). Turning to “CTCTCTCTCTCCCTCTCTCTCGGGCGCCACCGCGCATGGCCGGAGTCACCTAGTGCAG”, the binding signal was 9030 fluorescence intensity (a.u.). With “GTCATACTCTTGCCCTGTTAAATACAATAGTTTTTCTGCACGGAGTCACCTAGTGCAG”, the binding signal was 9310 fluorescence intensity (a.u.). As to “AAGTCTGAAGACGTACTCTTTTCTCTGCGCGCTAGCTGCTCGGAGTCACCTAGTGCAG”, the binding signal was 8040 fluorescence intensity (a.u.).

As to “GCACAAGGTCCAGTTTGAGTTCGTTTGCAGTTCTACCTTTCGGAGTCACCTAGTGCAG”, the binding signal was 9080 fluorescence intensity (a.u.). As to “TTCCTTCAAGCACAAAGCCATTGATATTCTTTATATGATTCGGAGTCACCTAGTGCAG”, the binding signal was 8060 fluorescence intensity (a.u.). As for “ACACACGCCGGACTCTCCCCTTCTCTCTGTCTCGCTCCTTCGGAGTCACCTAGTGCAG”, the binding signal was 8600 fluorescence intensity (a.u.). “CCTGATCCATTTGCTGCCCTCTTGTTGCCTCTTTCTGGGGCGGAGTCACCTAGTGCAG”: the binding signal was 11300 fluorescence intensity (a.u.).

The values are drawn from article PMC7819943, “Rice protein-binding microarrays: a tool to detect cis-acting elements near promoter regions in rice”.
